Measurements: PMC7057099
Residue numbers refer to the chain shown, from its start. Results are given in words; binding and its absence hold for the method and conditions named. In cells and extracts the contact can be indirect. Some entries that bind do so weakly or less than the wild type. Tags and fused reporters may be left off the sequences shown.

By UniProt entry, the sequences of proteins in these tests, tags left out. Where a name states a change or a piece, a line headed by the entry shows the natural chain unless it says otherwise. Chains listed by the source or under a name are the forms on record and can include a tag or linker.
GATA4 p.P394T variant, HA-tagged (P43694-1, form named): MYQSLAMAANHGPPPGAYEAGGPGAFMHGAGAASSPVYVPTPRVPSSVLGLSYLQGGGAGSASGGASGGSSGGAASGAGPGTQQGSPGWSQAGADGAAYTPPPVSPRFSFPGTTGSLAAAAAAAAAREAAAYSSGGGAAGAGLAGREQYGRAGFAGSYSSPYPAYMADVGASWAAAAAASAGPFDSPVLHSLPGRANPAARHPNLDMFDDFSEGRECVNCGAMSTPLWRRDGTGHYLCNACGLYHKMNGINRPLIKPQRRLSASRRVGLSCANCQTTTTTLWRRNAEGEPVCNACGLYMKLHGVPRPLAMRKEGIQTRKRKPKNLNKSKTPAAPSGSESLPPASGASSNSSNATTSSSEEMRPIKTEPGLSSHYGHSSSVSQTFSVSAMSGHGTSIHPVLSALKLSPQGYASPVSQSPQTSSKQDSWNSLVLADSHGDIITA

Assays:
[1] = target: T1, ZFPM2 (FOG2) p.L335V variant, Myc-DDK-tagged (human) (UniProt Q8WW38); assay: co-IP; HEK293-T cells co-transfected with GATA4-HA (wild-type or variant) and ZFPM2-Myc-DDK; Pierce IP lysis buffer; IP with rabbit anti-FLAG overnight at 4°C, protein A/G plus agarose, PBS washes; Western blot of the IP with anti-GATA4
T1 sequence: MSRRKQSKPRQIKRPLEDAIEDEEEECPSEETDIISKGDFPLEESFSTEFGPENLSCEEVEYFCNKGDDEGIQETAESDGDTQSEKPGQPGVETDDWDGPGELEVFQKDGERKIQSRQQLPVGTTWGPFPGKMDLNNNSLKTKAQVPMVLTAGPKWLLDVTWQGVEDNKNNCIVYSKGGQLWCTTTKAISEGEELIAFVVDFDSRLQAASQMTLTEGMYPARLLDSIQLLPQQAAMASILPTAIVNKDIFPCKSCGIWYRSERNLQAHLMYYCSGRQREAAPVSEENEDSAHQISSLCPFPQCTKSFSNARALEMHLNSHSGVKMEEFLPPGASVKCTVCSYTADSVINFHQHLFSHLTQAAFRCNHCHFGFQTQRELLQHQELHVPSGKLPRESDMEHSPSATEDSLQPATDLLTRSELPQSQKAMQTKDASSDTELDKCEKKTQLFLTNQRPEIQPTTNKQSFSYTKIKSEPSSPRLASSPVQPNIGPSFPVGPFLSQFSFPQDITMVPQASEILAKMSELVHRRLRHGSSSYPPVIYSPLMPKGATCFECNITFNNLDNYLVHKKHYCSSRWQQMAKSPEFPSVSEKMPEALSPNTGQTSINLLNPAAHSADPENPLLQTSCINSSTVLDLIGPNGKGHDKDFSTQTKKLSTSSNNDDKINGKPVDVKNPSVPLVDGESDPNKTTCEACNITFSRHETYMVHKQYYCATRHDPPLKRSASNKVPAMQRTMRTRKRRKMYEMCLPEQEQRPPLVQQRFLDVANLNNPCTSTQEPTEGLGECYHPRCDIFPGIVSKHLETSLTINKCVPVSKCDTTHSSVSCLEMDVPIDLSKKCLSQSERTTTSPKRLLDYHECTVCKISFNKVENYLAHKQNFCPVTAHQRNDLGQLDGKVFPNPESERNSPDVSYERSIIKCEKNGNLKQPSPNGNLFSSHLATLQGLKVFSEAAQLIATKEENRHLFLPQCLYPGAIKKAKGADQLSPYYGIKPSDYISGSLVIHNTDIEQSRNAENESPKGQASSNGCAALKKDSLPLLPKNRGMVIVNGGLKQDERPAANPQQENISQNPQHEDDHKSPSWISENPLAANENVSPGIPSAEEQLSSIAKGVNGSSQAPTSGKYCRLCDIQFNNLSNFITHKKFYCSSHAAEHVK

[2] = target: T2, Friend of GATA 2 protein (FOG2, ZFPM2), wild-type, Myc-DDK-tagged (human) (UniProt Q8WW38); assay: as above
T2 sequence: T1 sequence with V335L

- binding [1]: binds
- binding [2]: binds
Substance: GATA4 p.P394T variant, HA-tagged (from UniProt P43694-1 1-442)
